Source: PubChem BioAssay AID504774 (Drosophila RNAi Screening Center, 2011)

Screen: 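Fly genes whose loss alters survival after alkylation damage to DNA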 (primary screen)
Cells: Drosophila Kc167 cells
Knock-down reagent: long dsRNA against Drosophila genes, about 0.25 µg dsRNA per well
Time to read-out: about 6 days: 3 days knock-down, then 3 days with or without MMS
Conditions: methyl methanesulphonate 0.004% (w/v) for 3 days after knock-down
Detection: 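Viability in wells given MMS, read as ATP luminescence, normalised by quantiles plate by plate and averaged across replicates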
Reading the numbers: mean viability with MMS and viability with MMS: higher = more surviving cells after MMS
The screen tested about 23,000 reagents; shown is an unselected part of those that have a named target and a result. 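Values are quantile-normalised luminescence on an arbitrary scale; higher means more cells surviving MMS.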 A plus sign joins genes that one reagent is predicted to hit.

gene knocked down | amplicon | mean viability with MMS | viability with MMS, replicate 1 | viability with MMS, replicate 2
Ctl2 | DRSC14423 | 3.58e6 | 4.04e6 | 4.07e6
CG10194 | DRSC02025 | 3.69e6 | 4.08e6 | 4.35e6
AIMP1 | DRSC07118 | 3.68e6 | 4.06e6 | 4.18e6
Exn | DRSC09673 | 3.52e6 | 3.94e6 | 4.03e6
Exn | DRSC10077 | 3.54e6 | 4.03e6 | 3.99e6
CG4074 | DRSC11752 | 3.69e6 | 4.19e6 | 4.10e6
CG1523 | DRSC15033 | 3.54e6 | 4.04e6 | 4.01e6
St1 | DRSC04504 | 3.55e6 | 3.81e6 | 4.14e6
CG31998 | DRSC17137 | 3.53e6 | 4.07e6 | 3.94e6
CG31998 | DRSC17138 | 3.50e6 | 3.97e6 | 3.99e6
Cse1 | DRSC03287 | 3.26e6 | 3.58e6 | 3.74e6
SkpB | DRSC07683 | 3.57e6 | 4.00e6 | 4.14e6
ZnT49B | DRSC07225 | 3.45e6 | 3.81e6 | 3.96e6
SerRS-m | DRSC14096 | 3.44e6 | 4.02e6 | 3.78e6
CG2875 | DRSC18231 | 3.48e6 | 3.91e6 | 3.99e6
Oseg2 | DRSC08343 | 3.57e6 | 4.02e6 | 4.07e6
Uch-L5R | DRSC19825 | 3.41e6 | 3.85e6 | 3.90e6
gas | DRSC04521 | 3.40e6 | 3.80e6 | 3.86e6
Ir60b | DRSC04217 | 3.61e6 | 4.03e6 | 4.17e6
CG7458 | DRSC11829 | 3.75e6 | 4.28e6 | 3.95e6
CG7458 | DRSC21340 | 3.79e6 | 4.29e6 | 4.25e6
CR18228 | DRSC15317 | 3.41e6 | 3.82e6 | 3.94e6
CG12643 | DRSC17849 | 3.57e6 | 4.02e6 | 4.05e6
Rack1 | DRSC03405 | 3.46e6 | 3.88e6 | 3.94e6
CG33284 | DRSC22905 | 3.59e6 | 4.01e6 | 4.09e6
CG10000 | DRSC14170 | 3.69e6 | 4.19e6 | 4.15e6
tplus3a + tplus3b | DRSC03687 | 3.46e6 | 4.05e6 | 3.82e6
CG3687 | DRSC06850 | 3.59e6 | 4.04e6 | 4.09e6
cpx | DRSC11999 | 3.46e6 | 3.93e6 | 3.96e6
CG6567 + CG42394 | DRSC22241 | 3.47e6 | 3.87e6 | 4.02e6
CG34229 | DRSC06316 | 3.54e6 | 3.85e6 | 4.07e6
RluA-2 | DRSC02939 | 3.63e6 | 4.18e6 | 4.08e6
CG7379 | DRSC16237 | 3.82e6 | 4.18e6 | 4.34e6
CG17230 | DRSC15203 | 3.60e6 | 3.99e6 | 4.21e6
CG13771 | DRSC02277 | 3.50e6 | 3.91e6 | 4.03e6
CG14668 | DRSC12254 | 3.54e6 | 4.13e6 | 3.91e6
red | DRSC14477 | 3.06e6 | 3.56e6 | 3.66e6
red | DRSC23177 | 3.35e6 | 3.84e6 | 3.78e6
CG11279 | DRSC09837 | 3.51e6 | 3.86e6 | 4.10e6
Usp5 | DRSC08244 | 3.52e6 | 3.98e6 | 4.00e6
CG5934 | DRSC15922 | 3.54e6 | 3.98e6 | 4.05e6
beta4GalNAcTA | DRSC05944 | 2.07e6 | 4.12e6 | –
Sec24CD | DRSC00300 | 3.32e6 | 3.68e6 | 3.72e6
CG30484 | DRSC05457 | 3.47e6 | 4.04e6 | 3.88e6
CG16790 | DRSC15156 | 3.65e6 | 4.10e6 | 4.10e6
InR | DRSC16717 | 3.61e6 | 4.30e6 | 3.89e6

Part of the list above, reformatted:
gene knocked down,amplicon,mean viability with MMS,"viability with MMS, replicate 1","viability with MMS, replicate 2"
St1,DRSC04504,3.55e6,3.81e6,4.14e6
CG31998,DRSC17137,3.53e6,4.07e6,3.94e6
CG31998,DRSC17138,3.50e6,3.97e6,3.99e6
Cse1,DRSC03287,3.26e6,3.58e6,3.74e6
SkpB,DRSC07683,3.57e6,4.00e6,4.14e6
